Molecules are shown by their SMILES. Where “and” joins values, the source holds several entries; their conditions need not be identical. Identical values can stand only once. Like-named read-outs stand apart in the source and are kept apart here.

Here are results for one compound from patent US6277829A, “Process for preparing of aqueous formulation for opthalmic use” (S.I.F.I. Societa Industria Farmaceutica Italiana S.p.A., priority 1999, dated 2001).

For this series the following is noted: cornea, bioassay S. aureus ATCC 29213. On the procedure: Twelve male white New Zealand rabbits (weighing 1.8-2.3 kg) have been randomly divided in three groups (consisting of four animals each).
I Group: three instillations (animals have been sacrificed 6 hours after the first dosing)
II Group: six instillations (animals have been sacrificed 12 hours after the first dosing)
III Group: six instillations (animals have been sacrificed 24 hours after the first dosing)
Aqueous humor has been drawn away with a 23-gauge needle attached to an insulin syringe of 1 ml. After enucleation the cornea has been excised at the limbus and removed from the eyeball. All specimens have been carefully weighed, then immediately frozen at -20° C. […] Each specimen has been ground and homogenized with 1 ml of PBS (2 min., 24,000 rpm). The suspension has been mixed with an equal volume of acetonitrile and stored at 0° C. After 1 hour, the samples have been centrifuged at 0° C. […] Aqueous humor has been directly mixed with acetonitrile before being centrifuged.

For the compound `CC[C@H]1OC(=O)[C@H](C)[C@@H](O[C@H]2C[C@@](C)(OC)[C@@H](O)[C@H](C)O2)[C@H](C)[C@@H](O[C@@H]2O[C@H](C)C[C@H](N(C)C)[C@H]2O)[C@](C)(O)C[C@@H](C)CN(C)[C@H](C)[C@@H](O)[C@]1(C)O` [azithromycin], the “Zone (inhibition zone)” value is 10.00 mm (3 instillations, after 6 hours); 11.75 mm and 11.00 mm and 10.50 mm (6 instillations, after 24 hours).
